Results on 1 molecule are retold here after publication PMC3679034.

This experiment addresses T1, FLAG-GLUT1 (UniProt P11167).
T1 sequence: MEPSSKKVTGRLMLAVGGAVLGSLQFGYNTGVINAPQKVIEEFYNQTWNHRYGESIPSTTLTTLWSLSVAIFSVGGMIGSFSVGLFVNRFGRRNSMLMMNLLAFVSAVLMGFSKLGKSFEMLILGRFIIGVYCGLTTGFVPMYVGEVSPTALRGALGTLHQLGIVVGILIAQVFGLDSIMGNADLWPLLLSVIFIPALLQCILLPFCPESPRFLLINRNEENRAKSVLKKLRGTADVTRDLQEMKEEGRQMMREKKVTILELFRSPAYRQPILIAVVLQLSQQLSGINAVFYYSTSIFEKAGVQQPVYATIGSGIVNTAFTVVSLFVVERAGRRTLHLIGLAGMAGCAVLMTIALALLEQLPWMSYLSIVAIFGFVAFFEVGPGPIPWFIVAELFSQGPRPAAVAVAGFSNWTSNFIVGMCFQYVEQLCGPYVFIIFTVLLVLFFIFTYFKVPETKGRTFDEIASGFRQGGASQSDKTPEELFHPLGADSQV
As to the kind of experiment: co-IP; lysates of L6 myoblasts transiently transfected with FLAG-GLUT1 constructs, treated for one hour with vehicle (DMSO), 6 µM CP466722 (ATM inhibitor) or 1 µM doxorubicin (ATM activator); FLAG antibodies overnight at 4°C, protein A sepharose 4 hours at 4°C, five washes with lysis buffer (50 mM HEPES pH 7.4, 150 mM NaCl, 1% Triton X-100); Western blot for GIPC1 and stomatin. For orientation: A western blot detects proteins with antibodies after separation by electrophoresis.

These are yes or no findings as the source states them, for the method shown. Binding seen in cells or lysates may run through a third protein. Some binding calls cover weakened binding; strength is not graded here. Sequences can lack the tags named with a protein.

B1: Gα-interacting protein-interacting protein, C-terminus (GIPC1) (protein, UniProt Q9Z254 1-333)
chain: MPLGLGRRKKAPPLVENEEAEPSRSGLGVGEPGPLGGSGAGESQMGLPPPPASLRPRLVFHTQLAHGSPTGRIEGFTNVKELYGKIAEAFRLPAAEVMFCTLNTHKVDMDKLLGGQIGLEDFIFAHVKGQRKEVEVFKSEDALGLTITDNGAGYAFIKRIKEGSVIDHIQLISVGDMIEAINGQSLLGCRHYEVARLLKELPRGRTFTLKLTEPRKAFDMISQRSSGGHPGSGPQLGTGRGTLRLRSRGPATVEDLPSAFEEKAIEKVDDLLESYMGIRDTELAATMVELGKDKRNPDELAEALDERLGDFAFPDEFVFDVWGAIGDAKVGRY
In the case of B1, the binding entry is “binds”.
